From publication PMC12017883
These are yes or no findings as the source states them, for the method shown. In cells and extracts the contact can be indirect. A yes stands for co-enrichment or nearness to the bait. Other partners may have been found.

Sequences of proteins named here, by UniProt entry; tags and fusion partners are left off. A change or cut given only in a name is not applied to a line headed by its entry.
UniProt P00441: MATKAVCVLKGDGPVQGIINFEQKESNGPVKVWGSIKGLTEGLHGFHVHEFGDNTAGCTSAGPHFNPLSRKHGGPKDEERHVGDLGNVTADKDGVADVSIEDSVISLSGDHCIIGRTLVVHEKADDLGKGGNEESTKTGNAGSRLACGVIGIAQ

Biological target: human mtSOD1-L126delTT with a FLAG sequence at the C terminus (human) (UniProt P00441)
Experiment: affinity purification with mass spectrometry; anti-FLAG M2 IP (5 ug antibody, protein A/G magnetic beads) from the nuclear fraction of DF7 cells (500 ug total protein); control IP with monoclonal mouse IgG (MOPC 21); DIA proteomics; hits: log2 FC >= 2 over control or missing in the control IP

B1: Ataxin 2 (protein, UniProt O70305 1-1285)
chain: MRSSTAAVQRPAAGDPEPRRPAGWAARRSLPRTARRGGRGGAVAYPSAGPPPRGPGAPPRGPRSPPCASDCFGSNGHGASRPGSRRLLGVCGPPRPFVVVLLALAPAATPARACPPGVRASPPRSGVSSSARPAPGCPRPACEPVYGPLTMSLKPQPQPPAPATGRKPGGGLLSSPGAAPASAAVTSASVVPAPAAPVASSSAAAGGGRPGLGRGRNSSKGLPQPTISFDGIYANVRMVHILTSVVGSKCEVQVKNGGIYEGVFKTYSPKCDLVLDAAHEKSTESSSGPKREEIMESVLFKCSDFVVVQFKDTDSSYARRDAFTDSALSAKVNGEHKEKDLEPWDAGELTASEELELENDVSNGWDPNDMFRYNEENYGVVSTYDSSLSSYTVPLERDNSEEFLKREARANQLAEEIESSAQYKARVALENDDRSEEEKYTAVQRNCSDREGHGPNTRDNKYIPPGQRNREVLSWGSGRQSSPRMGQPGPGSMPSRAASHTSDFNPNAGSDQRVVNGGVPWPSPCPSHSSRPPSRYQSGPNSLPPRAATHTRPPSRPPSRPSRPPSHPSAHGSPAPVSTMPKRMSSEGPPRMSPKAQRHPRNHRVSAGRGSMSSGLEFVSHNPPSEAAAPPVARTSPAGGTWSSVVSGVPRLSPKTHRPRSPRQSSIGNSPSGPVLASPQAGIIPAEAVSMPVPAASPTPASPASNRALTPSIEAKDSRLQDQRQNSPAGSKENVKASETSPSFSKADNKGMSPVVSEHRKQIDDLKKFKNDFRLQPSSTSESMDQLLSKNREGEKSRDLIKDKTEASAKDSFIDSSSSSSNCTSGSSKTNSPSISPSMLSNAEHKRGPEVTSQGVQTSSPACKQEKDDREEKKDTTEQVRKSTLNPNAKEFNPRSFSQPKPSTTPTSPRPQAQPSPSMVGHQQPAPVYTQPVCFAPNMMYPVPVSPGVQPLYPIPMTPMPVNQAKTYRAGKVPNMPQQRQDQHHQSTMMHPASAAGPPIVATPPAYSTQYVAYSPQQFPNQPLVQHVPHYQSQHPHVYSPVIQGNARMMAPPAHAQPGLVSSSAAQFGAHEQTHAMYACPKLPYNKETSPSFYFAISTGSLAQQYAHPNAALHPHTPHPQPSATPTGQQQSQHGGSHPAPSPVQHHQHQAAQALHLASPQQQSAIYHAGLAPTPPSMTPASNTQSPQSSFPAAQQTVFTIHPSHVQPAYTTPPHMAHVPQAHVQSGMVPSHPTAHAPMMLMTTQPPGPKAALAQSALQPIPVSTTAHFPYMTHPSVQAHHQQQL
binding: binds

B2: Ddx21 (protein, UniProt Q9JIK5 1-851)
chain: MPGKLRSGAKLGSDGAEESMETLPKPSEKKTRKEKTKSKTEEATEGMEEAVSSKAKKTNKKGPSEDDVDPPKSRKAKKQEEEPQDDTASTSKTSKKKKEPLEKQADSETKEIITEEPSEEEADMPKPKKMKKGKEANGDAGEKSPKLKNGLSQPSEEEADIPKPKKMKKGKEANGDAGEKSPKLKNGLSQPSEEEVDIPKPKKMKKGKEASGDAGEKSPRLKDGLSQPSEPKSNSSDAPGEESSSETEKEIPVEQKEGAFSNFPISEETVKLLKARGVNFLFPIQAKTFHHVYSGKDLIAQARTGTGKTFSFAIPLIEKLQGGLQERKRGRAPQVLVLAPTRELANQVSKDFSDITKKLSVACFYGGTPYGGQIERMRSGIDILVGTPGRIKDHLQNGKLDLTKLKHVVLDEVDQMLDMGFADQVEEILCVAYKKDSEDNPQTLLFSATCPHWVFNVAKKYMKSTYEQVDLIGKKTQKAAITVEHLAIKCHWTERAAVIGDVIRVYSGHQGRTIIFCETKKDAQELSQNTCIKQDAQSLHGDIPQKQREITLKGFRNGNFGVLVATNVAARGLDIPEVDLVVQSCPPKDVESYIHRSGRTGRAGRTGVCICFYQNKEEYQLAQVEQKAGIKFKRIGVPSATEIIKASSKDAIRLLDSVPPTAISHFKQSAEKLIEEKGAVEALAAALAHISGATSVDQRSLINSQAGFVTMILRCSIEMPNISYAWKELKEQLGESIDAKVKGMVFLKGKLGVCFDVRTEAVTEIQEKWHDSRRWQLTVATEQPELEGPPDGYRGRMGQRDGSRGAFRGQRGGSRNFRGQGQRGGSRNFRGQRPGGGNRGQKRSFSKAFGQ
binding: binds

B3: Ddx50 (protein, UniProt Q99MJ9 1-734)
chain: MPGKLLWGDIMELEAPLEESESQRKERQKSDRRKSRHHSESEERTETRENGVTDDLDAPKPKKAKMREKLNGDTKEGLRFSDEFSPSHKSRRKDLPNGDVDEYEKRSKRVSSSENSHKSSDKAEETLTREQKEGAFSNFSISEETIKLLKGRGVTYLFPIQVKTFGPVYEGKDLIAQARTGTGKTFSFAIPLIERLQRNQETIKKSRSPKVLVLAPTRELANQVAKDFKDITRKLSVACFYGGTSYQSQINQIRNGIDILVGTPGRIKDHLQSGRLDLSKLRHVVLDEVDQMLDLGFAEQVEDIIHESYKTDSEDNPQTLLFSATCPQWVYKVAKKYMKSRYEQVDLVGKMTQKAATTVEHLAIQCHWSQRPAVIGDVLQVYSGSEGRAIIFCETKKNVTEMAMNPHIKQNAQCLHGDIAQSQREITLKGFREGSFKVLVATNVAARGLDIPEVDLVIQSSPPQDVESYIHRSGRTGRAGRTGICVCFYQPRERGQLRYVEQKAGITFKRVGVPSTMDLVKSKSMDAIRSLASVSYAAVDFFRPSAQRLIEEKGAVDALAAALAHISGASSFEPRSLITSDKGFVTMTLESPEEIQDVSCAWKELNRKLSSNAVSHVTRMCLLKGNMGVCFDVPTSESERLQAEWHDSDWILSVPAKLPEIEEYYDGNTSSNPRQRSGWSGGRSGRSGRSGGRSGGRSGRQSRQGSRSGSRQDGRRRSGNRNRSRSGGHKRNFD
binding: binds

B4: Dhx30 (protein, UniProt Q99PU8 1-1217)
chain: MVTPVCNSSTWQPKDSSFLSWPEMFSLDSFRKDRTQHRQRQCKLPPPRLPPMCVNPAPGGTITRASRDLLKEFPQPKNLLNSVIGRALGISHAKDKLVYVHTNGPKKKKVTLHIKWPKSVEVEGYGSKKIDAERQAAAAACQLFKGWGLLGPRNELFDAAKYRVLADRFGSPADSWWRPEPTMPPTSWRQLNPENIRPGGPAGLSRSLGREEEEDEEEELEEGTIDVTEFLSMTQQDSHNPLRDSRGGSFEMTDDDSAIRALTQFPLPKNLLAKVIQIATSSSTAKNLMQFHTVGTKTKLATLTLLWPCPMTFVAKGRRKAEAENKAAALACKKLKSLGLVDRNNEPLTHAMYNLASLRELGETQRRPCTIQVPEPILRKIEAFLSHYPVDSSWISPELRLQSDDILPLGKDSGPLSDPITGKPYMPLSEAEEVRLSQSLLELWRRRGPIWQEAPQLPVDPHRDTILSAIEQHPVVVISGDTGCGKTTRIPQLLLERYVTEGRGARCNVIITQPRRISAVSVAQRVSHELGPSLRRNVGFQVRLESKPPARGGALLFCTVGILLRKLQSNPSLEGVSHVIVDEVHERDVNTDFLLILLKGLQRLNPALRLVLMSATGDNERFSRYFGGCPVIKVPGFMYPVKEHYLEDILAKLGKHQYPHRHRHHESEDECALDLDLVTDLVLHIDARGEPGGILCFLPGWQEIKGVQQRLQEALGMHESKYLILPVHSNIPMMDQKAIFQQPPLGVRKIVLATNIAETSITVNDIVHVVDSGLHKEERYDLKTKVSCLETVWVSRANVIQRRGRAGRCQSGFAYHLFPRSRLEKMVPFQVPEILRTPLENLVLQAKIHMPEKTAVEFLSKAVDSPNIKAVDEAVILLQEIGVLDQREYLTTLGQRLAHISTDPRLAKAIVLAAIFRCLHPLLVVVSCLTRDPFSSSLQNRAEVDKVKALLSHDSGSDHLAFVRAVAGWEEVLRWQDRTSRENYLEENLLYAPSLRFIHGLIKQFSENIYEAFLVGKPSDCTLPSAQCNEYSEEEELVKGVLMAGLYPNLIQVRQGKVTRQGKFKPNSVTYRTKSGNILLHKSTINREATRLRSRWLTYFMAVKSNGSVFVRDSSQVHPLAVLLLTDGDVHIRDDGRRATISLSDSDLLRLEGDSRTVRLLREFRRALGRMVERSLRSELAALPLSVQQEHGQLLALLAELLRGPCGSFDMRKTADD
binding: binds

B5: Dhx36 (protein, UniProt Q8VHK9 1-1001)
chain: MSYDYHQSWSRDGGPRGSGQGSSGGGGGGSRGSGGGGGGRGGRGRHPAHLKGREIGLWYAKKQTQKNKEAERQERAVVHMDERREEQIVQLLNSVQAKTDKDSEAQISWFAPEDHGYGTEVSSEKKINSEKKLDNQEKKLLNQEKKTFRITDKSYIDRDSEYLLQENEPNLSLDQHLLEDLQRKKTDPRYIEMQRFRKKLPSYGMQKELVNLINNHQVTVISGETGCGKTTQVTQFILDNYIERGKGSACRIVCTQPRRISAISVAERVATERAESCGNGNSTGYQIRLQSRLPRKQGSILYCTTGIILQWLQSDSRLSSVSHIVLDEIHERNLQSDVLMTVIKDLLHFRSDLKVILMSATLNAEKFSEYFGNCPMIHIPGFTFPVVEYLLEDIIEKIRYVPDQKEHRSQFKRGFMQGHVNRQEKEEKEAIYKERWPAYIKELRTRYSASTVDVLQMMDDDKVDLNLIAALIRYIVLEEEDGAILVFLPGWDNISTLHDLLMSQVMFKSDKFLIIPLHSLMPTVNQTQVFKKTPPGVRKIVIATNIAETSITIDDVVYVIDGGKIKETHFDTQNNISTMSAEWVSKANAKQRKGRAGRVQPGHCYHLYNGLRASLLDDYQLPEILRTPLEELCLQIKILRLGGIAYFLSRLMDPPSNEAVVLSIKHLMELSALDKQEELTPLGVHLARLPVEPHIGKMILFGALFCCLDPVLTIAASLSFKDPFVIPLGKEKIADARRKELAKETRSDHLTVVNAFEGWEEAKRRGFRYEKDYCWEYFLSSNTLQMLHNMKGQFAEHLLGAGFVSSRSPKDPKANINSDNEKIIKAVICAGLYPKVAKIRLNLGKKRKMVKVHTKSDGLVSIHPKSVNVEQTDFHYNWLIYHLKMRTSSIYLYDCTEVSPYCLLFFGGDISIQKDKDQEIIAVDEWIVFQSPERIAHLVKGLRKELDSLLQEKIESPHPVDWDDTKSRDCAVLSAILDLIKTQEKATPRNLPPRSQDGYYS
binding: binds

B6: Adenosine 3'-phospho 5'-phosphosulfate transporter 1 (protein, UniProt Q91ZN5 1-431)
chain: MDARWWAVVVLATLPSLGAGGESPEAPPQSWTQLWLFRFLLNVAGYASFMVPGYLLVQYLRRKNYLETGRGLCFPLVKACVFGNEPKAPDEVLLAPRTETAESTPSWQVLKLVFCASGLQVSYLTWGILQERVMTGSYGATATSPGEHFTDSQFLVLMNRVLALVVAGLYCVLRKQPRHGAPMYRYSFASLSNVLSSWCQYEALKFVSFPTQVLAKASKVIPVMMMGKLVSRRSYEHWEYLTAGLISIGVSMFLLSSGPEPRSSPATTLSGLVLLAGYIAFDSFTSNWQDALFAYKMSSVQMMFGVNLFSCLFTVGSLLEQGALLEGARFMGRHSEFALHALLLSICSAFGQLFIFYTIGQFGAAVFTIIMTLRQAIAILLSCLLYGHTVTVVGGLGVAVVFTALLLRVYARGRKQRGKKAVPTEPPVQKV
binding: binds

B7: Gnl3 (protein, UniProt Q8CI11 1-538)
chain: MKRPKLKKASKRMTCHKRYKIQKKVREHHRKLRKEAKKRGHKKPRKDPGVPNSAPFKEALLREAELRKQQLEELKQQQKLDRQKEQERKRKLEVSPGDEQSNVETREESDEPKRKKAKAGKQNPKKLHCQELKKVIEASDIVLEVLDARDPLGCRCPQIEEAVIQSGSKKLILVLNKSDLVPKENLENWLNYLNKELPTVVFKASTNLKNRKTFKIKKKKVVPFQSKICCGKEALWKLLGDFQQSCGKDIQVGVIGFPNVGKSSVINSLKQEWICNVGISMGLTRSMQIVPLDKQITIIDSPCLIISPCNSPTALALRSPASIEELRPLEAASAILSQADNEQVVLKYTVPEYKDSLHFFTKLAQRRGLHQKGGSPNVESAAKLVWSEWTGASLGYYCHPPASWNHSLHFNENIAAVMKKGFNLEELEKNNAHSIQVLKGPHLTNRILFRSSGLTNGILDEKDIVEESPRQTEDKQDADDQENGSGERNAEISDVAPVEETRELSPEQSTAGKPSDGSSALDRASQEDETYDFTTDYI
binding: binds
